Reference: paper PMC7949146
No constants are given. Whether binding was seen depends on the method and setting. In cells and extracts the contact can be indirect. Some entries that bind do so weakly or less than the wild type.

By UniProt entry, the sequences of proteins in these tests, tags left out.
UniProt Q92547: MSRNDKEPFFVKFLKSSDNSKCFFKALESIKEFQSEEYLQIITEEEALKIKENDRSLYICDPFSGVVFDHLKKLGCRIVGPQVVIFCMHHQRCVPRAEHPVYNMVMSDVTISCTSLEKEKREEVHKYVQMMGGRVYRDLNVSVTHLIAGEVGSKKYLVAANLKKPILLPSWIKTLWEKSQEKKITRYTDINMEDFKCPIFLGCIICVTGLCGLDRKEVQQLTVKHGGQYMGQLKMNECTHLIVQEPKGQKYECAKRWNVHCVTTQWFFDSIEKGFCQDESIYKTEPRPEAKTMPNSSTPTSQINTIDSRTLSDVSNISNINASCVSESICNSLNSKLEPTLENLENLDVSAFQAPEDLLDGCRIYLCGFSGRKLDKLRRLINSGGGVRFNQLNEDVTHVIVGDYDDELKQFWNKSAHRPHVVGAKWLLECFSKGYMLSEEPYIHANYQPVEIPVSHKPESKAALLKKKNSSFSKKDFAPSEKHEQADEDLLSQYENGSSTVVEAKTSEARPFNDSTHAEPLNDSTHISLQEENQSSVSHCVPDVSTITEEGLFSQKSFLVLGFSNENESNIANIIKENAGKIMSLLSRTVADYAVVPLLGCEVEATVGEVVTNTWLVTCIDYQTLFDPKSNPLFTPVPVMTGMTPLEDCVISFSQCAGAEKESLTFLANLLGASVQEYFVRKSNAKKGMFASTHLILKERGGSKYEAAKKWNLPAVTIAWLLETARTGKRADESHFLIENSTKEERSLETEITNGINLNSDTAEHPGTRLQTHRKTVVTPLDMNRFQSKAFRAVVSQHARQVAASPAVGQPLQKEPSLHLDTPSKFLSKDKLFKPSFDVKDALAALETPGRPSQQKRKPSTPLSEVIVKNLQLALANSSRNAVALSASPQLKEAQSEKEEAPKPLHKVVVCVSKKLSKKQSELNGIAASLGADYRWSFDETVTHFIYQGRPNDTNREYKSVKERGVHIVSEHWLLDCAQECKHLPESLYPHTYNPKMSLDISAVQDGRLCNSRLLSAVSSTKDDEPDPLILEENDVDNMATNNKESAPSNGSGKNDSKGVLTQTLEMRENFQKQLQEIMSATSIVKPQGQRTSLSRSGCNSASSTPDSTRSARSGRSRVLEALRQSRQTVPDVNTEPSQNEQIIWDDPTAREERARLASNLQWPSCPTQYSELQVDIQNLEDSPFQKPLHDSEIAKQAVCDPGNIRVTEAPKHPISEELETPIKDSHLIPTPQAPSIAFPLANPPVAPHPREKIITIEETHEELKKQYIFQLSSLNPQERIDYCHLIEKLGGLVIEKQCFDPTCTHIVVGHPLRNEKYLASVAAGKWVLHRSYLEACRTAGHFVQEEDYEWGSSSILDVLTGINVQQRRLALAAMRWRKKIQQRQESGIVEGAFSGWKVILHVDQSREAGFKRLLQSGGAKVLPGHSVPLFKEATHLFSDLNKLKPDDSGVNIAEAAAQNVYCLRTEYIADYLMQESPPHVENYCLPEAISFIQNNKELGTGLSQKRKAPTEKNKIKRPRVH

Biological target: Topoisomerase IIβ-binding protein 1 (TopBP1) (UniProt Q92547)
Assay: co-IP; U2OS or MCF10A cells infected with Ad-CMV or Ad-TopBP1 at the indicated MOI, HU 2 mM; coimmunoprecipitation with anti-TopBP1 antibody as in Figure 3C; immunoblot

binding: binds
B1: Rad9 (protein, UniProt Q99638 1-391)
chain: MKCLVTGGNVKVLGKAVHSLSRIGDELYLEPLEDGLSLRTVNSSRSAYACFLFAPLFFQQYQAATPGQDLLRCKILMKSFLSVFRSLAMLEKTVEKCCISLNGRSSRLVVQLHCKFGVRKTHNLSFQDCESLQAVFDPASCPHMLRAPARVLGEAVLPFSPALAEVTLGIGRGRRVILRSYHEEEADSTAKAMVTEMCLGEEDFQQLQAQEGVAITFCLKEFRGLLSFAESANLNLSIHFDAPGRPAIFTIKDSLLDGHFVLATLSDTDSHSQDLGSPERHQPVPQLQAHSTPHPDDFANDDIDSYMIAMETTIGNEGSRVLPSISLSPGPQPPKSPGPHSEEEDEAEPSTVPGTPPPKKFRSLFFGSILAPVRSPQGPSPVLAEDSEGEG
